Consider one molecule from paper PMC4859692.

These are yes or no findings as the source states them, for the method shown. Binding seen in cells or lysates may run through a third protein. Some results given as binding are weak or reduced against the parent protein; the word gives no strength. Where a sequence is shown, tags or fusion partners need not be part of it.

This test deals with T1, Ino1-RFP (Dictyostelium inositol-3-phosphate synthase with a C-terminal RFP tag) (Dictyostelium discoideum) (UniProt Q54N49).
T1 sequence: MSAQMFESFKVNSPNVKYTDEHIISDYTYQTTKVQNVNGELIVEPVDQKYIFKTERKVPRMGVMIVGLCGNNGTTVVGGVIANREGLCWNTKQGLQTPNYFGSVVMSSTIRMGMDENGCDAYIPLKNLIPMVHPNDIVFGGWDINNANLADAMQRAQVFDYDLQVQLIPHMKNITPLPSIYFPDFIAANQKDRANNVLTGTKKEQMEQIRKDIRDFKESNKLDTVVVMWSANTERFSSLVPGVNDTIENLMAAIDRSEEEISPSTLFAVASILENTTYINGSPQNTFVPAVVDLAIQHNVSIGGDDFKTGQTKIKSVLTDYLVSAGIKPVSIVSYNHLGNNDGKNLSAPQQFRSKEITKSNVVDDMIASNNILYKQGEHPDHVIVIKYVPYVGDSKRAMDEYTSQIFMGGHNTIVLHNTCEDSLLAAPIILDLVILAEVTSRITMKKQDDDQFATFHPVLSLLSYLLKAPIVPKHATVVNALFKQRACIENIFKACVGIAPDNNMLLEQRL
Description: co-IP; ino1- cells coexpressing Ino1-RFP and a FLAG-tagged protein; lysate on anti-RFP-coated (RFP-Trap) beads, 1 h at 4°C; Western blot with anti-RFP and anti-FLAG M2. For orientation: In western blotting, separated proteins are transferred to a membrane and probed.

B1: FLAG-tagged GpmA (enzyme, UniProt Q54NE6 1-249)
chain: MVYKLVLIRHGESTWNKENKFTGWTDVDLSEKGVQEAHEAGKRLLKAGFTFDIAYTSVLKRAIRTLWILLEELNLYWIPVSRQWRLNERMYGSLQGLNKSETAAKYGEDQVLIWRRSYDIPPPALEESDERYPGNDPRYAKLDKSDLPKTECLKDTVERFLPLWNDTIAPTIKSGQKVLIAAHGNSIRALVKYLDNIADDKIVSMDIPTGIPLVYELDENLKPIKHYYLADESELNAAIQAVANQGKAK
With B1, the binding entry is reported as “binds weakly”.
